From PubChem BioAssay AID330 (DTP/NCI, 2004)
The list is a part of this screen's results and no random one: it gathers tests that were run many times, whatever their T/C, doses with no T/C, and many T/C values between a quarter and a half above the control. Other doses and runs of a compound stand elsewhere. T/C is the treated group as % of the vehicle group. Some entries give survivors of the animals treated and no T/C: the source holds a T/C of zero for them, seemingly a mark for toxic or unscored doses. Some doses without a T/C left all or most animals alive at the check, yet need not have been tolerated: survival well below the control is almost never listed, so the zero probably covers shortened survival too. Survivors were counted at the toxicity check, usually on the fifth day, unless a day is given; later deaths do not show. Schedule codes are those of the source, read here as Q, the interval in days (D) or hours (H), X, the number of doses. Where survival is the endpoint, the PubChem record calls one and a half times the control and up active, and a quarter to a half above the control has no call in these data; cut-offs in other NCI protocols can differ. Some T/C values are followed by the survivors on the day toxicity was checked, most often the fifth; without a count, all were alive then.

Test system: P388 leukemia ip, CD2F1 mice, survival T/C
Test: NCI In Vivo Anticancer Drug Screen. Data for tumor model P388 Leukemia (intraperitoneal) in CD2F1 (CDF1) mice
Details: T/C endpoint: median survival time, higher T/C = longer survival

With O=C1NC(c2cccc3ccccc23)Nc2ccccc21 (centres undefined) the T/C (dose: 8.0 mg/kg/injection, schedule: Q03HX024 (ip), vehicle: Klucel (hydroxypropylcellulose) (HPC)) was 130 % of control, the T/C (dose: 16.0 mg/kg/injection, schedule: Q03HX008 (ip), vehicle: Klucel (hydroxypropylcellulose) (HPC)) was 143 % of control and the T/C (dose: 16.0 mg/kg/injection, schedule: Q03HX016 (ip), vehicle: Klucel (hydroxypropylcellulose) (HPC)) was 144 % of control. For the same compound, the T/C (dose: 16.0 mg/kg/injection, schedule: Q03HX024 (ip), vehicle: other) was 130 % of control, the T/C (dose: 16.0 mg/kg/injection, schedule: Q03HX024 (oral), vehicle: other) was 126 % of control and the T/C (dose: 32.0 mg/kg/injection, schedule: Q03HX008 (ip), vehicle: other) was 125 % of control [9 of 10 alive]. The T/C (dose: 32.0 mg/kg/injection, schedule: Q03HX016 (ip), vehicle: other) was 143 % of control [9 of 10 alive], the T/C (dose: 32.0 mg/kg/injection, schedule: Q03HX016 (oral), vehicle: other) was 144 % of control and the survivor count (dose: 32.0 mg/kg/injection, schedule: Q03HX024 (ip), vehicle: Klucel (hydroxypropylcellulose) (HPC)) was 10 of 10. The T/C (dose: 32.0 mg/kg/injection, schedule: Q03HX024 (ip), vehicle: other) was 128 % of control [8 of 10 alive], the T/C (dose: 64.0 mg/kg/injection, schedule: Q01DX009 (sc), vehicle: Klucel (hydroxypropylcellulose) (HPC)) was 130 % of control and the T/C (dose: 64.0 mg/kg/injection, schedule: Q01DX009 (sc), vehicle: other) was 139 % of control. For the same compound, the survivor count (dose: 64.0 mg/kg/injection, schedule: Q03HX008 (ip), vehicle: Klucel (hydroxypropylcellulose) (HPC)) was 6 of 10, the survivor count (dose: 64.0 mg/kg/injection, schedule: Q03HX008 (ip), vehicle: other) was 1 of 10 and the survivor count (dose: 64.0 mg/kg/injection, schedule: Q03HX008 (oral), vehicle: other) was 4 of 10. The survivor count (dose: 64.0 mg/kg/injection, schedule: Q03HX016 (ip), vehicle: Klucel (hydroxypropylcellulose) (HPC)) was 6 of 10, the survivor count (dose: 64.0 mg/kg/injection, schedule: Q03HX016 (ip), vehicle: other) was 4 of 10 and the survivor count (dose: 64.0 mg/kg/injection, schedule: Q03HX016 (oral), vehicle: other) was 6 of 10. The survivor count (dose: 64.0 mg/kg/injection, schedule: Q03HX024 (ip), vehicle: Klucel (hydroxypropylcellulose) (HPC)) was 4 of 10, the survivor count (dose: 64.0 mg/kg/injection, schedule: Q03HX024 (ip), vehicle: other) was 0 of 10 and the survivor count (dose: 64.0 mg/kg/injection, schedule: Q03HX024 (oral), vehicle: other) was 5 of 10. The survivor count (dose: 128.0 mg/kg/injection, schedule: Q01DX009 (ip), vehicle: Klucel (hydroxypropylcellulose) (HPC)) was 10 of 10, the T/C (dose: 128.0 mg/kg/injection, schedule: Q01DX009 (ip), vehicle: other) was 128 % of control and the T/C (dose: 128.0 mg/kg/injection, schedule: Q01DX009 (oral), vehicle: other) was 135 % of control. The T/C (dose: 128.0 mg/kg/injection, schedule: Q01DX009 (sc), vehicle: Klucel (hydroxypropylcellulose) (HPC)) was 126 % of control, the survivor count (dose: 128.0 mg/kg/injection, schedule: Q01DX009 (sc), vehicle: other) was 10 of 10 and the survivor count (dose: 128.0 mg/kg/injection, schedule: Q03HX008 (ip), vehicle: Klucel (hydroxypropylcellulose) (HPC)) was 0 of 10. The survivor count (dose: 128.0 mg/kg/injection, schedule: Q03HX008 (ip), vehicle: other) was 0 of 10, the survivor count (dose: 128.0 mg/kg/injection, schedule: Q03HX008 (oral), vehicle: other) was 0 of 10 and the survivor count (dose: 128.0 mg/kg/injection, schedule: Q03HX016 (ip), vehicle: Klucel (hydroxypropylcellulose) (HPC)) was 0 of 10. The survivor count (dose: 128.0 mg/kg/injection, schedule: Q03HX016 (ip), vehicle: other) was 0 of 10, the survivor count (dose: 128.0 mg/kg/injection, schedule: Q03HX016 (oral), vehicle: other) was 0 of 10 and the survivor count (dose: 128.0 mg/kg/injection, schedule: Q03HX024 (ip), vehicle: Klucel (hydroxypropylcellulose) (HPC)) was 0 of 10. The survivor count (dose: 128.0 mg/kg/injection, schedule: Q03HX024 (ip), vehicle: other) was 0 of 10, the T/C (dose: 128.0 mg/kg/injection, schedule: Q03HX024 (oral), vehicle: Klucel (hydroxypropylcellulose) (HPC)) was 134 % of control and the survivor count (dose: 128.0 mg/kg/injection, schedule: Q03HX024 (oral), vehicle: other) was 0 of 10. The T/C (dose: 128.0 mg/kg/injection, schedule: Q04DX003 (ip), vehicle: Klucel (hydroxypropylcellulose) (HPC)) was 142 % of control, the T/C (dose: 128.0 mg/kg/injection, schedule: Q08DX002 (ip), vehicle: Klucel (hydroxypropylcellulose) (HPC)) was 129 % of control and the T/C (dose: 128.0 mg/kg/injection, schedule: Q08DX002 (oral), vehicle: other) was 127 % of control. For the same compound, the T/C (dose: 256.0 mg/kg/injection, schedule: Q01DX001 (ip), vehicle: Klucel (hydroxypropylcellulose) (HPC)) was 129 % of control, the T/C (dose: 256.0 mg/kg/injection, schedule: Q01DX001 (oral), vehicle: other) was 135 % of control and the survivor count (dose: 256.0 mg/kg/injection, schedule: Q01DX009 (ip), vehicle: Klucel (hydroxypropylcellulose) (HPC)) was 4 of 10. The survivor count (dose: 256.0 mg/kg/injection, schedule: Q01DX009 (ip), vehicle: other) was 8 of 10, the survivor count (dose: 256.0 mg/kg/injection, schedule: Q01DX009 (oral), vehicle: other) was 3 of 10 and the survivor count (dose: 256.0 mg/kg/injection, schedule: Q01DX009 (sc), vehicle: other) was 7 of 10. For the same compound, the T/C (dose: 256.0 mg/kg/injection, schedule: Q04DX003 (sc), vehicle: other) was 139 % of control, the T/C (dose: 256.0 mg/kg/injection, schedule: Q08DX002 (ip), vehicle: Klucel (hydroxypropylcellulose) (HPC)) was 135 % of control and the T/C (dose: 256.0 mg/kg/injection, schedule: Q08DX002 (oral), vehicle: other) was 132 % of control [8 of 10 alive]. For the same compound, the T/C (dose: 512.0 mg/kg/injection, schedule: Q01DX001 (ip), vehicle: Klucel (hydroxypropylcellulose) (HPC)) was 144 % of control, the survivor count (dose: 512.0 mg/kg/injection, schedule: Q01DX001 (ip), vehicle: other) was 5 of 10 and the survivor count (dose: 512.0 mg/kg/injection, schedule: Q01DX001 (oral), vehicle: other) was 3 of 10. The survivor count (dose: 512.0 mg/kg/injection, schedule: Q04DX003 (ip), vehicle: Klucel (hydroxypropylcellulose) (HPC)) was 9 of 10, the survivor count (dose: 512.0 mg/kg/injection, schedule: Q04DX003 (ip), vehicle: other) was 5 of 10 and the survivor count (dose: 512.0 mg/kg/injection, schedule: Q04DX003 (oral), vehicle: other) was 2 of 10. For the same compound, the T/C (dose: 512.0 mg/kg/injection, schedule: Q04DX003 (sc), vehicle: Klucel (hydroxypropylcellulose) (HPC)) was 135 % of control, the survivor count (dose: 512.0 mg/kg/injection, schedule: Q04DX003 (sc), vehicle: other) was 6 of 10 and the survivor count (dose: 512.0 mg/kg/injection, schedule: Q08DX002 (ip), vehicle: other) was 3 of 10. For the same compound, the survivor count (dose: 512.0 mg/kg/injection, schedule: Q08DX002 (oral), vehicle: other) was 5 of 10, the survivor count (dose: 1024.0 mg/kg/injection, schedule: Q01DX001 (ip), vehicle: Klucel (hydroxypropylcellulose) (HPC)) was 4 of 10 and the survivor count (dose: 1024.0 mg/kg/injection, schedule: Q01DX001 (ip), vehicle: other) was 0 of 10. For the same compound, the survivor count (dose: 1024.0 mg/kg/injection, schedule: Q01DX001 (oral), vehicle: other) was 1 of 10, the survivor count (dose: 1024.0 mg/kg/injection, schedule: Q04DX003 (ip), vehicle: Klucel (hydroxypropylcellulose) (HPC)) was 2 of 10 and the survivor count (dose: 1024.0 mg/kg/injection, schedule: Q04DX003 (ip), vehicle: other) was 0 of 10. For the same compound, the survivor count (dose: 1024.0 mg/kg/injection, schedule: Q04DX003 (oral), vehicle: other) was 1 of 10, the survivor count (dose: 1024.0 mg/kg/injection, schedule: Q04DX003 (sc), vehicle: other) was 0 of 10 and the survivor count (dose: 1024.0 mg/kg/injection, schedule: Q08DX002 (ip), vehicle: Klucel (hydroxypropylcellulose) (HPC)) was 1 of 10. For the same compound, the survivor count (dose: 1024.0 mg/kg/injection, schedule: Q08DX002 (ip), vehicle: other) was 0 of 10 and the survivor count (dose: 1024.0 mg/kg/injection, schedule: Q08DX002 (oral), vehicle: other) was 1 of 10.

For CCOC(=O)COc1cc2c(cc1C(C)c1ccc(OCc3ccccc3)c(OC)c1)OCO2 (centres undefined), the survivor count (dose: 200.0 mg/kg/injection, schedule: Q01DX005 (ip), vehicle: Klucel (hydroxypropylcellulose) (HPC)) was 6 of 6.
